Measured values: paper doi:10.1101/2021.06.03.447020

Target: T1, recombinant His-tagged Reg4 (not stated (human or mouse cDNA cloned)) (UniProt Q9D8G5)
T1 sequence: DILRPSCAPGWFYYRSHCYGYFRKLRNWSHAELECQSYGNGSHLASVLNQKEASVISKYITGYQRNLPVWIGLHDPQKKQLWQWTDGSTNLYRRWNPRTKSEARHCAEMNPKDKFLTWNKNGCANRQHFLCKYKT
Assay: pull-down

Substance: flagellin of Salmonella Typhimurium
- binding: binds

These are yes or no findings as the source states them, for the method shown. Binding seen in cells or lysates may run through a third protein. Binding calls can cover weak binding; strength is not graded here. Where a sequence is shown, tags or fusion partners need not be part of it.
